Source: PubChem BioAssay AID652259 (Drosophila RNAi Screening Center, 2013)
Screen: 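Knock-downs that push a Wingless-driven reporter up or down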 (primary screen). System: Drosophila clone 8 imaginal disc epithelial cells. Knock-down reagent: long dsRNA against Drosophila genes. Treatment: pathway stimulated by co-transfected Wingless expression plasmid. Detection: 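Firefly luciferase from a tcf-site Wingless reporter, measured alongside co-transfected Renilla luciferase that tracks transfection; pathway stimulated by a Wingless plasmid; the firefly-to-Renilla ratio is not deposited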. Direction: firefly reporter light: higher = more Wg reporter light, before normalisation; Renilla control light: higher = more transfected or surviving cells. Rule for the call: 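a knock-down is a candidate when at least two out of four statistical tests show it departing from its plate mean; one test alone signals a weak candidate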. Calls: active = candidate regulator (raises or lowers reporter); inactive = not a candidate.
The deposit covers about 22,000 reagents; shown is a random part of those with a known target gene and a result. In the full data, 233 (1.1%) were called active. 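Light values are raw, unnormalised plate reads; the ratio scores behind the reporter calls were not deposited.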 A number with no mark means an inactive call. A plus sign joins genes that one reagent is predicted to hit. The record does not give: the amount of reagent, the time to read-out, the dose of the treatment.

| target | DRSC id | firefly reporter light, replicate 1 | firefly reporter light, replicate 2 | Renilla control light, replicate 1 | Renilla control light, replicate 2 |
| --- | --- | --- | --- | --- | --- |
| Cog2 (GeneID 41870) | DRSC16987 | 21227 | – | 3820 | – |
| CG14662 + asRNA:CR43478 | DRSC12248 | 14469 | – | 3840 | – |
| PhKgamma (GeneID 32120) | DRSC20268 | 2704 | 6754 | 1000 | 2714 |
| Gli (GeneID 34927) | DRSC03332 | 2972 | 4992 | 1011 | 2765 |
| Fbp1 (GeneID 39566) | DRSC11166 | 4509 | – | 1813 | – |
| fwd (GeneID 45374) | DRSC08580 | 10435 | – | 2605 | – |
| IntS11 (GeneID 43506) | DRSC15407 | 2500 | 6109 | 1290 | 2233 |
| CG32483 (GeneID 318050) | DRSC07902 | 2321 | – | 544 | – |
| HSPC300 (GeneID 246497) | DRSC22880 | 6.16e5 | 6.56e5 | 2.74e5 | 2.50e5 |
| lncRNA:CR42862 + CG33229 | DRSC08497 | 16747 | – | 5315 | – |
| Glut1 (GeneID 38109) | DRSC07927 | 2700 | – | 616 | – |
| Glut1 (GeneID 38109) | DRSC08378 | 4107 | – | 1938 | – |
| Glut1 (GeneID 38109) | DRSC08662 | 15776 | – | 5541 | – |
| CG13694 (GeneID 33169) | DRSC00363 | 2423 | 6881 | 1357 | 2806 |
| Mic26-27 (GeneID 41959) | DRSC15913 | 3664 | 10761 | 1016 | 3289 |
| cbc (GeneID 36494) | DRSC06957 | 11029 | – | 5177 | – |
| CAH16 (GeneID 50101) | DRSC15371 | 5192 | – | 2763 | – |
| CG32099 (GeneID 317852) | DRSC21352 | 3.38e5 | 4.70e5 | 1.70e5 | 1.80e5 |
| CG17982 (GeneID 31739) | DRSC18143 | 15121 | – | 7216 | – |
| Tengl4 (GeneID 41321) | DRSC15620 | 18618 | – | 4420 | – |
| Myc (GeneID 31310) | DRSC18762 | 12729 | – | 3675 | – |
| Cpr5C (GeneID 31510) | DRSC18340 | 24560 | – | 12053 | – |
| S-Lap8 (GeneID 36844) | DRSC06870 | 19962 | – | 7602 | – |
| S-Lap8 (GeneID 36844) | DRSC21372 | 3.28e5 | 4.07e5 | 1.67e5 | 1.56e5 |
| LSm3 (GeneID 42842) | DRSC15920 | 31361 | – | 19092 | – |
| CG16711 (GeneID 39135) | DRSC10220 | 5488 | – | 2343 | – |
| ru (GeneID 44856) | DRSC08258 | 4331 | – | 1881 | – |
| CG8708 (GeneID 35792) | DRSC07240 | 4698 | – | 1719 | – |
| CG18747 (GeneID 59143) | DRSC15384 | 15416 | – | 4416 | – |
| CG33111 (GeneID 50068) | DRSC14208 | 16404 | – | 13010 | – |
| CG33111 (GeneID 50068) | DRSC14444 | 21141 | – | 16332 | – |
| CG3955 (GeneID 36438) | DRSC06859 | 13099 | – | 3783 | – |
| CG12096 (GeneID 32269) | DRSC21692 | 4.48e5 | 4.98e5 | 1.85e5 | 1.93e5 |
| CG31807 (GeneID 318953) | DRSC01550 | 11061 | – | 6003 | – |
| CG31510 (GeneID 326146) | DRSC14182 | 20346 | – | 15014 | – |
| CG3285 (GeneID 33547) | DRSC00589 | 12792 | – | 5592 | – |
| RpL24-like (GeneID 41372) | DRSC16111 | 12680 | – | 2924 | – |
| ebd1 (GeneID 38082) | DRSC08565 | 13793 | – | 5194 | – |
| Osi23 (GeneID 43615) | DRSC15074 | 5100 | – | 2571 | – |
| CG13359 (GeneID 31028) | DRSC18539 | 19319 | – | 12188 | – |
| mmy (GeneID 33903) | DRSC02002 | 4960 | – | 2737 | – |
| CG33752 (GeneID 3771860) | DRSC05351 | 16329 | – | 12899 | – |
| CG30187 (GeneID 246509) | DRSC22461 | 3.68e5 | 4.59e5 | 1.21e5 | 80672 |
| lncRNA:CR43451 (GeneID 12798473) | DRSC13352 | 3682 | – | 2529 | – |
| CG14566 (GeneID 40421) | DRSC11727 | 19904 | – | 7426 | – |
| RpL7A (GeneID 31588) | DRSC18709 | 23463 | – | 6725 | – |
| Gr98c (GeneID 117336) | DRSC22212 | 7.15e5 | 6.82e5 | 3.40e5 | 3.25e5 |
| asRNA:CR43469 + Balat | DRSC06852 | 7105 | – | 2784 | – |
| CG32473 (GeneID 41636) | DRSC14352 | 13545 | – | 4017 | – |
| CG32473 (GeneID 41636) | DRSC16446 | 9784 | – | 4290 | – |
| CG15117 (GeneID 37197) | DRSC06539 | 13376 | – | 3488 | – |
| CG32453 (GeneID 318036) | DRSC21673 | 6.90e5 | 7.48e5 | 3.71e5 | 2.99e5 |
| dyw (GeneID 31252) | DRSC18228 | 13754 | – | 8912 | – |
| CG33469 (GeneID 2768832) | DRSC22900 | 5.33e5 | 5.47e5 | 2.25e5 | 1.41e5 |
| Nsun5 (GeneID 7354421) | DRSC15835 | 2868 | 4449 | 578 | 1792 |
| CG3610 (GeneID 41795) | DRSC15502 | 11799 | – | 3440 | – |
| CG8490 (GeneID 36338) | DRSC07194 | 11121 | – | 1693 | – |
| CG12730 (GeneID 31466) | DRSC17885 | 20564 | – | 9748 | – |
| CG15919 (GeneID 50216) | DRSC06594 | 4592 | – | 963 | – |
| CG12814 (GeneID 41246) | DRSC14552 | 7208 | – | 2322 | – |
| CG12814 (GeneID 41246) | DRSC14553 | 14690 | – | 2656 | – |
| prom (GeneID 246493) | DRSC04684 | 3184 | 5114 | 692 | 1836 |
| prom (GeneID 246493) | DRSC21463 | 5.69e5 | 6.22e5 | 2.86e5 | 2.45e5 |
| prom (GeneID 246493) | DRSC22088 | 6.39e5 | 6.61e5 | 2.23e5 | 2.69e5 |
| C15 (GeneID 42544) | DRSC13495 | 1958 | – | 1396 | – |
| C15 (GeneID 42544) | DRSC14169 | 33815 | – | 7404 | – |
| zetaTry (GeneID 36216) | DRSC07720 | 8298 | – | 3104 | – |
| Nil (GeneID 43185) | DRSC15953 | 24312 | – | 21606 | – |
| CG13272 (GeneID 35013) | DRSC02249 | 3143 | 7932 | 1036 | 3888 |
| CG13272 (GeneID 35013) | DRSC22910 | 4.86e5 | 5.43e5 | 2.10e5 | 20918 |
| CG9951 (GeneID 39888) | DRSC11105 | 7171 | – | 2147 | – |
| betaGlu (GeneID 43746) | DRSC15419 | 2541 | 4384 | 789 | 1378 |
| CG12769 (GeneID 35770) | DRSC06167 | 19872 | – | 6004 | – |

Looked up above:
RpL24-like (GeneID 41372) [DRSC16111], firefly reporter light, replicate 1: 12680
Under “firefly reporter light, replicate 1”, CG15117 (GeneID 37197) [DRSC06539] is entered as 13376
Value of CAH16 (GeneID 50101) [DRSC15371] in “firefly reporter light, replicate 1”: 5192
Entry for Cog2 (GeneID 41870) [DRSC16987] under “firefly reporter light, replicate 1”: 21227
Result of dyw (GeneID 31252) [DRSC18228] under “firefly reporter light, replicate 1”: 13754
